Laboratory results: the supplement of paper PMC8728848
This is one part of the list.

How the values were obtained:
Experiment in all cases: glycan array binding signal (z-score within array); higher = stronger binding
Conditions in all cases: glycan notation: IUPAC condensed, linker removed
[1] = system: Fuc(a1-2)[Gal(a1-3)]Gal(b1-3)GlcNAc(b1-3)GalNAc
Summary of the method: (§1)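 Arrays were curated from the Consortium for Functional Glycomics database, 3228 in total, and kept only where the protein sequence was available. Binding is expressed as a within-array Z-score. This score was averaged across arrays of the same protein sequence at different concentrations or buffers and across linkers, and negative values can be read as non-binding.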

[2] = system: Fuc(a1-2)[Gal(a1-3)]Gal(b1-3)GlcNAc
Summary of the method: as §1

[3] = system: Fuc(a1-2)[Gal(a1-3)]Gal(b1-4)GlcNAc(b1-2)Man(a1-3)[Fuc(a1-2)[Gal(a1-3)]Gal(b1-4)GlcNAc(b1-2)Man(a1-6)]Man(b1-4)GlcNAc(b1-4)GlcNAc
Summary of the method: as §1

[4] = system: Fuc(a1-2)[Gal(a1-3)]Gal(b1-4)GlcNAc(b1-2)Man(a1-3)[Fuc(a1-2)[Gal(a1-3)]Gal(b1-4)GlcNAc(b1-2)Man(a1-6)]Man(b1-4)GlcNAc(b1-4)[Fuc(a1-6)]GlcNAc
Summary of the method: as §1

[5] = system: Fuc(a1-2)[Gal(a1-3)]Gal(b1-4)GlcNAc(b1-3)GalNAc
Summary of the method: as §1

[6] = system: Fuc(a1-2)[Gal(a1-3)]Gal(b1-4)GlcNAc(b1-6)GalNAc
Summary of the method: as §1

[7] = system: Fuc(a1-2)[Gal(a1-3)]Gal(b1-4)GlcNAc
Summary of the method: as §1

[8] = system: Fuc(a1-2)[Gal(a1-3)]Gal(b1-4)Glc
Summary of the method: as §1

[9] = system: Fuc(a1-2)[Gal(a1-3)]Gal(b1-4)[Fuc(a1-3)]GlcNAc(b1-3)GalNAc
Summary of the method: as §1

[10] = system: Fuc(a1-2)[Gal(a1-3)]Gal(b1-4)[Fuc(a1-3)]GlcNAc
Summary of the method: as §1

[11] = system: Fuc(a1-2)[Gal(a1-3)]Gal(b1-4)[Fuc(a1-3)]Glc
Summary of the method: as §1

Fuc(a1-2)[Gal(a1-3)]Gal = system: Fuc(a1-2)[Gal(a1-3)]Gal
Summary of the method: as §1

[12] = system: Fuc(a1-2)[Gal(a1-4)]Gal(b1-4)GlcNAc
Summary of the method: as §1

[13] = system: Fuc(a1-2)[GalNAc(a1-3)]Gal(b1-3)GalNAc(a1-3)[Fuc(a1-2)]Gal(b1-4)GlcNAc
Summary of the method: as §1

[14] = system: Fuc(a1-2)[GalNAc(a1-3)]Gal(b1-3)GlcNAc(b1-2)Man(a1-3)[Fuc(a1-2)[GalNAc(a1-3)]Gal(b1-3)GlcNAc(b1-2)Man(a1-6)]Man(b1-4)GlcNAc(b1-4)GlcNAc
Summary of the method: as §1

[15] = system: Fuc(a1-2)[GalNAc(a1-3)]Gal(b1-3)GlcNAc(b1-2)Man(a1-3)[Fuc(a1-2)[GalNAc(a1-3)]Gal(b1-3)GlcNAc(b1-2)Man(a1-6)]Man(b1-4)GlcNAc(b1-4)[Fuc(a1-6)]GlcNAc
Summary of the method: as §1

[16] = system: Fuc(a1-2)[GalNAc(a1-3)]Gal(b1-3)GlcNAc(b1-3)GalNAc
Summary of the method: as §1

[17] = system: Fuc(a1-2)[GalNAc(a1-3)]Gal(b1-3)GlcNAc(b1-6)GalNAc
Summary of the method: as §1

[18] = system: Fuc(a1-2)[GalNAc(a1-3)]Gal(b1-3)GlcNAc
Summary of the method: as §1

[19] = system: Fuc(a1-2)[GalNAc(a1-3)]Gal(b1-4)GlcNAc(b1-2)Man(a1-3)[Fuc(a1-2)[GalNAc(a1-3)]Gal(b1-4)GlcNAc(b1-2)Man(a1-6)]Man(b1-4)GlcNAc(b1-4)GlcNAc
Summary of the method: as §1

[20] = system: Fuc(a1-2)[GalNAc(a1-3)]Gal(b1-4)GlcNAc(b1-2)Man(a1-3)[Fuc(a1-2)[GalNAc(a1-3)]Gal(b1-4)GlcNAc(b1-2)Man(a1-6)]Man(b1-4)GlcNAc(b1-4)[Fuc(a1-6)]GlcNAc
Summary of the method: as §1

[21] = system: Fuc(a1-2)[GalNAc(a1-3)]Gal(b1-4)GlcNAc(b1-3)Gal(b1-4)GlcNAc(b1-3)Gal(b1-4)GlcNAc
Summary of the method: as §1

[22] = system: Fuc(a1-2)[GalNAc(a1-3)]Gal(b1-4)GlcNAc(b1-3)Gal(b1-4)GlcNAc
Summary of the method: as §1

[23] = system: Fuc(a1-2)[GalNAc(a1-3)]Gal(b1-4)GlcNAc(b1-3)GalNAc
Summary of the method: as §1

[24] = system: Fuc(a1-2)[GalNAc(a1-3)]Gal(b1-4)GlcNAc
Summary of the method: as §1

[25] = system: Fuc(a1-2)[GalNAc(a1-3)]Gal(b1-4)Glc
Summary of the method: as §1

[26] = system: Fuc(a1-2)[GalNAc(a1-3)]Gal(b1-4)[Fuc(a1-3)]GlcNAc(b1-3)GalNAc
Summary of the method: as §1

[27] = system: Fuc(a1-2)[GalNAc(a1-3)]Gal(b1-4)[Fuc(a1-3)]GlcNAc
Summary of the method: as §1

[28] = system: Fuc(a1-2)[GalNAc(a1-3)]Gal
Summary of the method: as §1

[29] = system: Fuc(a1-2)[GalNAc(a1-4)]Gal(b1-4)GlcNAc
Summary of the method: as §1

[30] = system: Fuc(a1-2)[GalNAc(b1-3)]Gal
Summary of the method: as §1

Fuc(a1-3)GlcNAc = system: Fuc(a1-3)GlcNAc
Summary of the method: as §1

[31] = system: Fuc(a1-3)[Gal(b1-4)]Glc6S
Summary of the method: as §1

[32] = system: Fuc(a1-3)[Gal(b1-4)]GlcNAc(b1-2)Man(a1-3)[Fuc(a1-3)[Gal(b1-4)]GlcNAc(b1-2)Man(a1-6)]Man(b1-4)GlcNAc(b1-4)GlcNAc
Summary of the method: as §1

[33] = system: Fuc(a1-3)[Gal(b1-4)]GlcNAc(b1-2)Man(a1-3)[Fuc(a1-3)[Gal(b1-4)]GlcNAc(b1-2)Man(a1-6)]Man(b1-4)GlcNAc(b1-4)[Fuc(a1-6)]GlcNAc
Summary of the method: as §1

[34] = system: Fuc(a1-3)[Gal(b1-4)]GlcNAc(b1-2)Man
Summary of the method: as §1

[35] = system: Fuc(a1-3)[Gal(b1-4)]GlcNAc(b1-3)Gal(b1-3)[Fuc(a1-4)]GlcNAc
Summary of the method: as §1

[36] = system: Fuc(a1-3)[Gal(b1-4)]GlcNAc(b1-3)GalNAc
Summary of the method: as §1

[37] = system: Fuc(a1-3)[Gal(b1-4)]GlcNAc(b1-4)Gal(b1-4)[Fuc(a1-3)]GlcNAc(b1-4)Gal(b1-4)[Fuc(a1-3)]GlcNAc
Summary of the method: as §1

[38] = system: Fuc(a1-3)[Gal(b1-4)]GlcNAc(b1-4)Gal(b1-4)[Fuc(a1-3)]GlcNAc
Summary of the method: as §1

[39] = system: Fuc(a1-3)[Gal(b1-4)]GlcNAc(b1-6)GalNAc
Summary of the method: as §1

[40] = system: Fuc(a1-3)[Gal(b1-4)]GlcNAc(b1-6)[Gal(b1-3)GlcNAc(b1-3)]Gal(b1-4)Glc
Summary of the method: as §1

[41] = system: Fuc(a1-3)[Gal(b1-4)]GlcNAc(b1-6)[Neu5Ac(a2-3)Gal(b1-3)]GalNAc
Summary of the method: as §1

[42] = system: Fuc(a1-3)[Gal(b1-4)]GlcNAc6S
Summary of the method: as §1

[43] = system: Fuc(a1-3)[Gal(b1-4)]GlcNAc
Summary of the method: as §1

[44] = system: Fuc(a1-3)[Gal3S(b1-4)]GlcNAc6S
Summary of the method: as §1

[45] = system: Fuc(a1-3)[Gal3S(b1-4)]GlcNAc
Summary of the method: as §1

[46] = system: Fuc(a1-3)[GalNAc(b1-4)]GlcNAc6S
Summary of the method: as §1

[47] = system: Fuc(a1-3)[GalNAc(b1-4)]GlcNAc
Summary of the method: as §1

[48] = system: Fuc(a1-3)[GalNAc3S(b1-4)]GlcNAc
Summary of the method: as §1

Fuc(a1-4)GlcNAc = system: Fuc(a1-4)GlcNAc
Summary of the method: as §1

Fuc(b1-3)GlcNAc = system: Fuc(b1-3)GlcNAc
Summary of the method: as §1

What does the source list for Wza (Escherichia coli), P0A930?
glycan array binding signal (z-score) [1]: -1.15; glycan array binding signal (z-score) [2]: -0.582; glycan array binding signal (z-score) [3]: -0.458; glycan array binding signal (z-score) [4]: -0.699; glycan array binding signal (z-score) [5]: -1.57; glycan array binding signal (z-score) [6]: 1.02; glycan array binding signal (z-score) [7]: -0.06; glycan array binding signal (z-score) [8]: -0.311; glycan array binding signal (z-score) [9]: -0.073; glycan array binding signal (z-score) [10]: -0.129; glycan array binding signal (z-score) [11]: -1.47; glycan array binding signal (z-score) (Fuc(a1-2)[Gal(a1-3)]Gal): -0.594; glycan array binding signal (z-score) [12]: -1.63; glycan array binding signal (z-score) [13]: -0.097; glycan array binding signal (z-score) [14]: 0.941; glycan array binding signal (z-score) [15]: -0.894; glycan array binding signal (z-score) [16]: 2.39; glycan array binding signal (z-score) [17]: 2.07; glycan array binding signal (z-score) [18]: -0.77; glycan array binding signal (z-score) [19]: -0.891; glycan array binding signal (z-score) [20]: 0.324; glycan array binding signal (z-score) [21]: 0.187; glycan array binding signal (z-score) [22]: -1.42; glycan array binding signal (z-score) [23]: -0.598; glycan array binding signal (z-score) [24]: -0.975; glycan array binding signal (z-score) [25]: -0.58; glycan array binding signal (z-score) [26]: 1.59; glycan array binding signal (z-score) [27]: -0.059; glycan array binding signal (z-score) [28]: -0.285; glycan array binding signal (z-score) [29]: -0.737; glycan array binding signal (z-score) [30]: 0.246; glycan array binding signal (z-score) (Fuc(a1-3)GlcNAc): 1.15; glycan array binding signal (z-score) [31]: -0.318; glycan array binding signal (z-score) [32]: 0.433; glycan array binding signal (z-score) [33]: 0.915; glycan array binding signal (z-score) [34]: 0.907; glycan array binding signal (z-score) [35]: 0.451; glycan array binding signal (z-score) [36]: 0.32; glycan array binding signal (z-score) [37]: 0.548; glycan array binding signal (z-score) [38]: -1.29; glycan array binding signal (z-score) [39]: 0.934; glycan array binding signal (z-score) [40]: -0.532; glycan array binding signal (z-score) [41]: -0.799; glycan array binding signal (z-score) [42]: -0.512; glycan array binding signal (z-score) [43]: 0.212; glycan array binding signal (z-score) [44]: -1.25; glycan array binding signal (z-score) [45]: -1.1; glycan array binding signal (z-score) [46]: 1.08; glycan array binding signal (z-score) [47]: -1.12; glycan array binding signal (z-score) [48]: -0.098; glycan array binding signal (z-score) (Fuc(a1-4)GlcNAc): -0.957; glycan array binding signal (z-score) (Fuc(b1-3)GlcNAc): 1.51
